Results: PubChem BioAssay AID330 (DTP/NCI, 2004)
The list is a part of this screen's results and no random one: it is rich in T/C values a quarter to a half above the control, in often repeated tests (any T/C) and in doses without a T/C. Other doses and runs of a compound stand elsewhere. T/C is the treated group as % of the vehicle group. Some doses have a count of surviving animals in place of a T/C: the source files T/C as zero there, which appears to mark a toxic dose or a test without result, not a measured value. Some survivor counts are full or nearly so, which does not show that the dose was tolerated: the source hardly ever lists a survival T/C far under the control, and the zero likely stands for such cases as well. Survivors were counted at the toxicity check, usually on the fifth day, unless a day is given; later deaths do not show. Schedule codes are those of the source, taken here to give the interval after Q, in days (D) or hours (H), and the number of doses after X. Some entries hold several experiments; their values stand side by side, smallest first. Where survival is the endpoint, the PubChem record calls one and a half times the control and up active, and a quarter to a half above the control has no call in these data; cut-offs in other NCI protocols can differ. Some T/C values are followed by the survivors on the day toxicity was checked, most often the fifth; without a count, all were alive then.

System: P388 leukemia ip, CD2F1 mice, survival T/C
Assay: NCI In Vivo Anticancer Drug Screen. Data for tumor model P388 Leukemia (intraperitoneal) in CD2F1 (CDF1) mice
Settings: T/C endpoint: median survival time, higher T/C = longer survival
[1] = dose: 400.0 mg/kg/injection, schedule: Q01DX001 (ip), vehicle: saline with Tween-80
[2] = dose: 100.0 mg/kg/injection, schedule: Q01DX005 (ip), vehicle: saline with Tween-80
[3] = dose: 100.0 mg/kg/injection, schedule: Q01DX009 (ip), vehicle: saline with Tween-80
[4] = dose: 240.0 mg/kg/injection, schedule: Q01DX005 (ip), vehicle: saline with Tween-80
[5] = dose: 50.0 mg/kg/injection, schedule: Q01DX009 (ip), vehicle: saline with Tween-80

Q: For c1ccc(Sc2c(-c3ccccc3)c(-c3ccccc3)c3n2CCC3)cc1, which survivor count (dose: 240.0 mg/kg/injection, schedule: Q01DX005 (ip), vehicle: Klucel (hydroxypropylcellulose) (HPC)) is on record?
A: Its survivor count is 6 of 6.

Q: Which survivor count (dose: 100.0 mg/kg/injection, schedule: Q01DX009 (ip), vehicle: saline sonified) does the source give for Cc1ccc(C(O)(CNC2CCCCC2)c2ccccc2)cc1 (centres undefined) here?
A: Its survivor count is 6 of 6.

Q: How did the survivor count [1] turn out when COc1cc(C(O)C2C(=O)OCC2C2(c3ccc4c(c3)OCO4)SCCCS2)cc(OC)c1OC (centres undefined) was run?
A: Its survivor count is 3 of 6.

Q: With CC(C)N1C(=O)N(Cl)C2C1N(Cl)C(=O)N2Cl (centres undefined) as the molecule, how does the T/C [2] read?
A: The T/C was 126 % of control.

Q: What does the source list for O=C1NC2(CCCCC2)C(=O)N1CCCCCN(CCCl)CCCl?
A: T/C (dose: 6.0 mg/kg/injection, schedule: Q01DX005 (ip), vehicle: saline): 131 % of control; T/C (dose: 10.0 mg/kg/injection, schedule: Q01DX005 (ip), vehicle: saline): 133 % of control; T/C (dose: 12.0 mg/kg/injection, schedule: Q01DX005 (ip), vehicle: saline): 137 % of control; T/C (dose: 20.0 mg/kg/injection, schedule: Q01DX005 (ip), vehicle: saline): 136 % of control; T/C (dose: 24.0 mg/kg/injection, schedule: Q01DX005 (ip), vehicle: saline): 149 % of control [5 of 6 alive]; survivor count (dose: 80.0 mg/kg/injection, schedule: Q01DX005 (ip), vehicle: saline): 2 of 6

Q: With Cc1ccc(NC(=O)Oc2c(C)cc(Cl)cc2C)c([N+](=O)[O-])c1 as the molecule, how does the survivor count [3] read?
A: Its survivor count is 6 of 6.

Q: How did the survivor count [4] turn out when Cc1cc(Nc2ccc3c(c2)OCO3)c2cc(C3CCCCC3)ccc2n1 was run?
A: The survivor count was 6 of 6.

Q: How did the survivor count (dose: 50.0 mg/kg/injection, schedule: Q01DX009 (ip), vehicle: Klucel (hydroxypropylcellulose) (HPC)) turn out when COC(C)(C)O/N=C(\C[P+](c1ccccc1)(c1ccccc1)c1ccccc1)c1ccc(Cl)cc1 was run?
A: The survivor count was 0 of 6.

Q: And the survivor count (dose: 100.0 mg/kg/injection, schedule: Q01DX009 (ip), vehicle: Klucel (hydroxypropylcellulose) (HPC))?
A: Its survivor count is 0 of 6.

Q: And the survivor count (dose: 200.0 mg/kg/injection, schedule: Q01DX009 (ip), vehicle: Klucel (hydroxypropylcellulose) (HPC))?
A: Its survivor count is 0 of 6.

Q: S=C1CCNCC1 was tested. Which survivor count (dose: 12.5 mg/kg/injection, schedule: Q04DX003 (ip), vehicle: saline) did it give?
A: The survivor count was 6 of 6.

Q: Which survivor count [2] does the source give for Nc1ncc(Cl)c2ccccc12 here?
A: The survivor count was 3 of 5.

Q: And the survivor count (dose: 200.0 mg/kg/injection, schedule: Q01DX005 (ip), vehicle: saline with Tween-80)?
A: The survivor count was 0 of 5.

Q: Which results are given for COC1=NC=CC=CC1?
A: survivor count [5]: 6 of 6; survivor count [3]: 1 of 6; survivor count (dose: 200.0 mg/kg/injection, schedule: Q01DX009 (ip), vehicle: saline with Tween-80): 0 of 6

Q: For CC(=O)SCC1C(=O)CCCC1=O, which survivor count (dose: 100.0 mg/kg/injection, schedule: Q04DX003 (ip), vehicle: saline with Tween-80) is on record?
A: The survivor count was 3 of 6 and 4 of 6.

Q: And the survivor count (dose: 200.0 mg/kg/injection, schedule: Q04DX003 (ip), vehicle: saline with Tween-80)?
A: The survivor count was 0 of 6.

Q: What about the survivor count (dose: 400.0 mg/kg/injection, schedule: Q04DX003 (ip), vehicle: saline with Tween-80) of the same molecule?
A: The survivor count was 0 of 6.

Q: For CC1(C)C2CC=C(CCOC(=S)S)C1C2.[Ni] (centres undefined), which survivor count [5] is on record?
A: The survivor count was 6 of 6.

Q: And the survivor count [3]?
A: The survivor count was 6 of 6.

Q: Which survivor count (dose: 50.0 mg/kg/injection, schedule: Q04DX003 (ip), vehicle: distilled water + Tween-80) does the source give for COc1ccc2c(C)c3[n+](cc2c1OC)CCc1cc2c(cc1-3)OCO2 here?
A: Its survivor count is 0 of 5.

Q: And the survivor count (dose: 100.0 mg/kg/injection, schedule: Q04DX003 (ip), vehicle: distilled water + Tween-80)?
A: The survivor count was 0 of 5.

Q: And the survivor count (dose: 200.0 mg/kg/injection, schedule: Q04DX003 (ip), vehicle: distilled water + Tween-80)?
A: The survivor count was 0 of 5.

Q: And the survivor count (dose: 400.0 mg/kg/injection, schedule: Q04DX003 (ip), vehicle: distilled water + Tween-80)?
A: The survivor count was 0 of 5.

Q: With CC(=O)[C@H]1[C@H](O)C[C@H]2[C@@H]3CCC4=CC(=O)CC[C@]4(C)[C@@]3(F)[C@@H](O)C[C@@]21C as the molecule, how does the survivor count (dose: 400.0 mg/kg/injection, schedule: Q01DX009 (ip), vehicle: saline) read?
A: Its survivor count is 3 of 6.

Q: Which T/C (dose: 25.0 mg/kg/injection, schedule: Q01DX009 (ip), vehicle: saline with Tween-80) does the source give for CCOC(=O)c1ccc(NC(=O)Nc2nccs2)cc1 here?
A: Its T/C is 145 % of control.

Q: And the T/C [5]?
A: The T/C was 149 % of control.

Q: And the T/C [3]?
A: The T/C was 143 % of control.

Q: CCC(=O)Nc1ncc([N+](=O)[O-])s1 was tested. Which survivor count [3] did it give?
A: Its survivor count is 6 of 6.

Q: CC(=O)OCC1OC(OC2C=C(O[Si](C)(C)C)C[C@H]3C(=O)C=CC(=O)[C@@H]23)C(OC(C)=O)C(OC(C)=O)C1OC(C)=O (some centres undefined) was tested. Which survivor count (dose: 120.0 mg/kg/injection, schedule: Q01DX005 (ip), vehicle: saline with Tween-80) did it give?
A: Its survivor count is 0 of 6.

Q: And the survivor count [4]?
A: Its survivor count is 0 of 6.

Q: Which results are given for CCOCc1ccc(C(=O)NCCCc2c(-c3ccccc3)nc(N)[nH]c2=O)cc1?
A: survivor count (dose: 7.5 mg/kg/injection, schedule: Q01DX005 (ip), vehicle: Klucel (hydroxypropylcellulose) (HPC)): 6 of 6; survivor count (dose: 30.0 mg/kg/injection, schedule: Q01DX005 (ip), vehicle: Klucel (hydroxypropylcellulose) (HPC)): 6 of 6; survivor count (dose: 60.0 mg/kg/injection, schedule: Q01DX005 (ip), vehicle: Klucel (hydroxypropylcellulose) (HPC)): 6 of 6; survivor count (dose: 120.0 mg/kg/injection, schedule: Q01DX005 (ip), vehicle: Klucel (hydroxypropylcellulose) (HPC)): 6 of 6

Q: For COc1cc(C=C2C(=O)C=CC2=O)cc(OC)c1OC, which survivor count (dose: 25.0 mg/kg/injection, schedule: Q04DX002 (ip), vehicle: saline with Tween-80) is on record?
A: Its survivor count is 0 of 6.

Q: What about the survivor count (dose: 50.0 mg/kg/injection, schedule: Q04DX002 (ip), vehicle: saline with Tween-80) of the same molecule?
A: Its survivor count is 0 of 6.

Q: And the survivor count (dose: 100.0 mg/kg/injection, schedule: Q04DX002 (ip), vehicle: saline with Tween-80)?
A: The survivor count was 1 of 6.

Q: What does the source list for CCCCCC[N+](CCCCCC)(CCCCCC)CCCCCC?
A: T/C (dose: 1.3 mg/kg/injection, schedule: Q01DX009 (ip), vehicle: saline): 149 % of control; T/C (dose: 2.0 mg/kg/injection, schedule: Q01DX009 (ip), vehicle: saline): 132 % of control; T/C (dose: 3.0 mg/kg/injection, schedule: Q01DX009 (ip), vehicle: saline): 132 % of control [4 of 6 alive]; survivor count (dose: 4.5 mg/kg/injection, schedule: Q01DX009 (ip), vehicle: saline): 2 of 6

Q: For COc1cc(OC)c2c(=O)c3ccc([N+](=O)[O-])cc3n(C)c2c1, which survivor count [1] is on record?
A: Its survivor count is 3 of 6.

Q: Which results are given for O=C1CC(c2ccccc2)C(=O)N1CN1CC=CCC1 (centres undefined)?
A: T/C (dose: 200.0 mg/kg/injection, schedule: Q01DX001 (ip), vehicle: Klucel (hydroxypropylcellulose) (HPC)): 127 % of control; T/C (dose: 400.0 mg/kg/injection, schedule: Q01DX001 (ip), vehicle: Klucel (hydroxypropylcellulose) (HPC)): 126 % of control

Q: C(=N\Nc1nnc2c3cccnc3c3ccccc3c2n1)/c1ccc2c(c1)OCO2 was tested. Which survivor count [1] did it give?
A: The survivor count was 1 of 6.

Q: With NC(=O)c1nc2c(N)nc(-c3ccccc3)nc2nc1N as the molecule, how does the survivor count (dose: 75.0 mg/kg/injection, schedule: Q01DX009 (ip), vehicle: saline with Tween-80) read?
A: Its survivor count is 6 of 6.

Q: For O=C(CN1CCN(c2ccccc2)CC1)n1nnc2ccccc21, which survivor count [4] is on record?
A: The survivor count was 6 of 6.

Q: Which survivor count (dose: 200.0 mg/kg/injection, schedule: Q01DX009 (ip), vehicle: saline) does the source give for C[N+](C)(C)N here?
A: Its survivor count is 0 of 6.

Q: With COc1cccc(/C=N/Nc2cc(C)nc3cc4c(cc23)OCO4)c1 as the molecule, how does the survivor count (dose: 12.5 mg/kg/injection, schedule: Q01DX005 (ip), vehicle: Klucel (hydroxypropylcellulose) (HPC)) read?
A: The survivor count was 6 of 6.

Q: And the survivor count (dose: 200.0 mg/kg/injection, schedule: Q01DX005 (ip), vehicle: Klucel (hydroxypropylcellulose) (HPC))?
A: Its survivor count is 2 of 6.

Q: Which survivor count (dose: 100.0 mg/kg/injection, schedule: Q01DX001 (ip), vehicle: saline with Tween-80) does the source give for CSc1nc(SC)c2c(CNC(C)=O)cn(Cc3ccccc3)c2n1 here?
A: The survivor count was 6 of 6.

Q: And the survivor count [1]?
A: The survivor count was 1 of 6.
